# In the supplement of paper PMC7666118:
# By UniProt entry, the sequences of proteins in these tests, tags left out. Where a name states a change or a piece, a line headed by the entry shows the natural chain unless it says otherwise.
# UniProt P36871: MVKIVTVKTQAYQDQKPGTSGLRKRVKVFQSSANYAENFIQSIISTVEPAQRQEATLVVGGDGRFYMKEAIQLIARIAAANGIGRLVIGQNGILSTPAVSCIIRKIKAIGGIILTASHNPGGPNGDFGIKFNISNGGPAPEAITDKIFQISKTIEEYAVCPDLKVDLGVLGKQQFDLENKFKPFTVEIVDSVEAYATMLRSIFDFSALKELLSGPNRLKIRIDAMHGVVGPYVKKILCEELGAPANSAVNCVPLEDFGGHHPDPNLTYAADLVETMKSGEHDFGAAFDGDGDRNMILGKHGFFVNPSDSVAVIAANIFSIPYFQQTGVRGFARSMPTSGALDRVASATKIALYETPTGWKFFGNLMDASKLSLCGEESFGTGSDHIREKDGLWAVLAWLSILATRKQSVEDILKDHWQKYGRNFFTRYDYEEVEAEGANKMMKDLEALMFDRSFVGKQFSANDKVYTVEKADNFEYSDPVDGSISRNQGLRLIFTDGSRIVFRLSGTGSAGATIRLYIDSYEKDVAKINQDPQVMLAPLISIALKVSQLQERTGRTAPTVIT
# UniProt P22061: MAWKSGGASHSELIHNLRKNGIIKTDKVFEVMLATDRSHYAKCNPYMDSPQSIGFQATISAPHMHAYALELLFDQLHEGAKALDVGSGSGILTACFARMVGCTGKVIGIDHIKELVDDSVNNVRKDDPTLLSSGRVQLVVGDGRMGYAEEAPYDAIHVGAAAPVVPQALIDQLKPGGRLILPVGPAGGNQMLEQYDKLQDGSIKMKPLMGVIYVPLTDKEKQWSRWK
# UniProt Q13835: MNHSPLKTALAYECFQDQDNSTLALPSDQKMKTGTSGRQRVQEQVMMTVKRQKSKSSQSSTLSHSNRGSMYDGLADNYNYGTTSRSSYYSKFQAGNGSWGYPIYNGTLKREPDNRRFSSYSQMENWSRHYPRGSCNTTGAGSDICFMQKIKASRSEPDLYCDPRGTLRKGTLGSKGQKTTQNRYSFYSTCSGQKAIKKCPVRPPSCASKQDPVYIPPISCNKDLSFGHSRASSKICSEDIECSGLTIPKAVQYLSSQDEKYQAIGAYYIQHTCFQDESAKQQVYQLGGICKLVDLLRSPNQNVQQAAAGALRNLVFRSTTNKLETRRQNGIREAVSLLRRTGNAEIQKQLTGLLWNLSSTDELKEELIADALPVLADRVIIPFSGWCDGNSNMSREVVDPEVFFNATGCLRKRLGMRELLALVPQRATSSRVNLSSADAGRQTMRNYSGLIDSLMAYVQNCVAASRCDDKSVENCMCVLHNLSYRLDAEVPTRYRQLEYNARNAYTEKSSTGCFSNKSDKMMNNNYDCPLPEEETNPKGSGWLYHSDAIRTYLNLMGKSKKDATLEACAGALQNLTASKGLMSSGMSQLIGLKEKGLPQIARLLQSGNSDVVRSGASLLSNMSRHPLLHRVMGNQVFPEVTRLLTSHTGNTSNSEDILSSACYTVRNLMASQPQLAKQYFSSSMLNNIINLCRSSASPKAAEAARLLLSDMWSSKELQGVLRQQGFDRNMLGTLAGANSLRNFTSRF
# UniProt O00330, whole entry: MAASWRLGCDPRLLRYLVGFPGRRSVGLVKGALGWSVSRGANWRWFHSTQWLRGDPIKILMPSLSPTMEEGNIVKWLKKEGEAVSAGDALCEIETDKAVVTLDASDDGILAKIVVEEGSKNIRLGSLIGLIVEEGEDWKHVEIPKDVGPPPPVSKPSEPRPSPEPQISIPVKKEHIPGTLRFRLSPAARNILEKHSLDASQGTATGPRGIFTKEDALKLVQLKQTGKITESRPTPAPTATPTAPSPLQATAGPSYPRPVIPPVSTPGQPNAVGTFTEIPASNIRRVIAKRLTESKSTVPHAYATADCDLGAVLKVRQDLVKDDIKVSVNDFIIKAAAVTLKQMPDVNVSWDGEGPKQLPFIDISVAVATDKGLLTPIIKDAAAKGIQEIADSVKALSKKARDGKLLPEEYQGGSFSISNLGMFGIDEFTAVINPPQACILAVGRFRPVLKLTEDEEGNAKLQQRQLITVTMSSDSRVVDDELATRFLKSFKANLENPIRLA
# UniProt Q86TB9: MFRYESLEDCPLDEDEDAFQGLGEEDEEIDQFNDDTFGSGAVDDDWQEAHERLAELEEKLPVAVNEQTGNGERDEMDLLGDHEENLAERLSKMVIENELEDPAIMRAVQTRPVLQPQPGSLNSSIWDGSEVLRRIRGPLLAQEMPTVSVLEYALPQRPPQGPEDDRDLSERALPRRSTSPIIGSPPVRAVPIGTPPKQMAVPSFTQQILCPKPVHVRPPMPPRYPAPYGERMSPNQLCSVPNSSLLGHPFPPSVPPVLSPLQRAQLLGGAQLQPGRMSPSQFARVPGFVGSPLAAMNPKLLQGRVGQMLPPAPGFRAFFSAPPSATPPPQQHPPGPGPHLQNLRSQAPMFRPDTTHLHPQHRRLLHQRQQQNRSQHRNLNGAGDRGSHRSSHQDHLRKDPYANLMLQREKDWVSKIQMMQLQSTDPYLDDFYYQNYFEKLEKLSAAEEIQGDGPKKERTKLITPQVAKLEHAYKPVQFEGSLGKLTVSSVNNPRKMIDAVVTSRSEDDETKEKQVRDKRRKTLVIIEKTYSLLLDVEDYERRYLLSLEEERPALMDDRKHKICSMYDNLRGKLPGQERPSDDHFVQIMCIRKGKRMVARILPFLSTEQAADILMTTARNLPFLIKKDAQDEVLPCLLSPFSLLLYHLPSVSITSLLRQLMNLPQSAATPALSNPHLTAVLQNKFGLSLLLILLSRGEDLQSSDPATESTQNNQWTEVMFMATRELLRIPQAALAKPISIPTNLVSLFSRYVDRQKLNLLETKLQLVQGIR
# UniProt Q13442: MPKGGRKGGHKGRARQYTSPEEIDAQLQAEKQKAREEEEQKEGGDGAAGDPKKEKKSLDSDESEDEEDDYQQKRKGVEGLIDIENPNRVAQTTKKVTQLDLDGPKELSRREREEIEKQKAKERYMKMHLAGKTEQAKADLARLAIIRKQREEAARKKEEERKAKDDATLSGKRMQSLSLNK
# UniProt Q53FV1: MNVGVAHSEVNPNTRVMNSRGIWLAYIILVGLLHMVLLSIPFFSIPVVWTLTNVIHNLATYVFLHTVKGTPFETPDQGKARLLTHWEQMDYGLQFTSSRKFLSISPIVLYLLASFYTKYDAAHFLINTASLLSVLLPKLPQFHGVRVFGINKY
# UniProt Q13310, whole entry: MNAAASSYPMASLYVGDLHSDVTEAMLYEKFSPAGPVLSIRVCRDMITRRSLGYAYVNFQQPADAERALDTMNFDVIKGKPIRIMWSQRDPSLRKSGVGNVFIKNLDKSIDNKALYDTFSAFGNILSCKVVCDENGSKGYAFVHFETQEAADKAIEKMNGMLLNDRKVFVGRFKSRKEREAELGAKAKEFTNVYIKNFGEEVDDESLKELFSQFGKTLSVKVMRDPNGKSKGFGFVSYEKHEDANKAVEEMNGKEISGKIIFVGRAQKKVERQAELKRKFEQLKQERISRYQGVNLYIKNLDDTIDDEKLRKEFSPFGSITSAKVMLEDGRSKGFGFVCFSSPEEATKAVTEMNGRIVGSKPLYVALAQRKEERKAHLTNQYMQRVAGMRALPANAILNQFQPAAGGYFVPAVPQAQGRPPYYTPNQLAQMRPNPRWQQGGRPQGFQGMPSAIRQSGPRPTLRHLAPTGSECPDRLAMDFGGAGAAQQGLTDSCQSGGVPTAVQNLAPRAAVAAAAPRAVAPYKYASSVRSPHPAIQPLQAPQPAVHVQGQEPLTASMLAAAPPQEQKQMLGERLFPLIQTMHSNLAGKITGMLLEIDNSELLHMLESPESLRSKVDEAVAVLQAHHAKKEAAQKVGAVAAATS
# UniProt Q8WUB8: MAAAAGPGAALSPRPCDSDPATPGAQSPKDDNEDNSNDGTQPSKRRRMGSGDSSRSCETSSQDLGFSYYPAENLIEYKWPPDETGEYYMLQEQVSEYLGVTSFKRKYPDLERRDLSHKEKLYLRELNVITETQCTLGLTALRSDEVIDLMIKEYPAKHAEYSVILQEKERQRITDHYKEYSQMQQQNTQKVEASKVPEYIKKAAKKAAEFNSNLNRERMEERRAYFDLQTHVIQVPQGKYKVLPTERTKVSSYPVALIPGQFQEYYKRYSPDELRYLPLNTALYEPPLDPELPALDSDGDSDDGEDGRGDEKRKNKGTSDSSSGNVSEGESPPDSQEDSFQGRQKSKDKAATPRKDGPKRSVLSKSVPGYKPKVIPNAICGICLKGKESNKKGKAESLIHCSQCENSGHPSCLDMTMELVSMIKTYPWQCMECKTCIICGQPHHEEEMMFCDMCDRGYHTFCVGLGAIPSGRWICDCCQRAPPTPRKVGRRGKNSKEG
# The other results are listed elsewhere or left out.
# Compound: COc1ccc(Cn2ccc3cc(C)c(C(=O)NO)cc32)cc1
# Test: dose-dependent thermal stabilisation call (2D-TPP, DLPTP, 10% FDR) (binary (1 = stabilised)); higher = stabilised by the compound
# Conditions: system: HL-60 intact cells; concentration range 0.04-10 µM
# Method: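 2D thermal proteome profiling in intact HL-60 cells treated with BRD-3811 (0, 0.04, 0.29, 2, 10 uM) for 90 min at 37 C, then heated 3 min at one of 12 temperatures (42-63.9 C). Soluble protein was quantified by TMT10 MS. The value is the DLPTP call of the paper: dose-dependent thermal stabilisation over all temperatures at 10% FDR (F-test of a dose-response against a flat model); one experiment, one call per tested protein.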
row,Target,dose-dependent thermal stabilisation call
1,PGM1 (UniProt P36871),inactive: 0
2,PCMT1 (UniProt P22061),inactive: 0
3,PKP1 (UniProt Q13835),inactive: 0
4,PDHX (UniProt O00330),inactive: 0
5,PATL1 (UniProt Q86TB9),inactive: 0
6,PDAP1 (UniProt Q13442),inactive: 0
7,ORMDL2 (UniProt Q53FV1),inactive: 0
8,PABPC4 (UniProt Q13310),inactive: 0
9,PHF10 (UniProt Q8WUB8),inactive: 0
